Assay results as given in publication PMC4631508.
These are yes or no findings as the source states them, for the method shown. In cells and extracts the contact can be indirect. Some entries that bind do so weakly or less than the wild type. Where a sequence is shown, tags or fusion partners need not be part of it.

Experiments:
Assay in all cases: co-IP; protein extracts from Drosophila testes expressing GFP- or YFP-tagged proteins; precipitated with GFP-trap beads (ChromoTek), immunoblotted
[1] = molecular target: T1, YFP-Rab11 (wild type) (Drosophila) (UniProt O18335)
T1 sequence: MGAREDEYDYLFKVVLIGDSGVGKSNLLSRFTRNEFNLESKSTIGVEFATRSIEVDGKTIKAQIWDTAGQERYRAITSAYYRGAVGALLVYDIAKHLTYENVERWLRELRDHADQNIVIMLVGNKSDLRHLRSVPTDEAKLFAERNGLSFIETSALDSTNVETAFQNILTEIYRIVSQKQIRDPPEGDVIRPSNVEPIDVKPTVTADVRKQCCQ

[2] = molecular target: T2, YFP-Rab11^Q70L (Drosophila) (UniProt O18335)
T2 sequence: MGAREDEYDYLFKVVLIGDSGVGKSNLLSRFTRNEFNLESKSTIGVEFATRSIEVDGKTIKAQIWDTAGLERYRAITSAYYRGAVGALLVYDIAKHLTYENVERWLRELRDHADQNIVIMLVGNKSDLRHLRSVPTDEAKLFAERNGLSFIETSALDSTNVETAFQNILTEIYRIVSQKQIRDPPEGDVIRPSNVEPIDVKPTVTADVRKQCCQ

[3] = molecular target: T3, YFP-Rab11^S25N (Drosophila) (UniProt O18335)
T3 sequence: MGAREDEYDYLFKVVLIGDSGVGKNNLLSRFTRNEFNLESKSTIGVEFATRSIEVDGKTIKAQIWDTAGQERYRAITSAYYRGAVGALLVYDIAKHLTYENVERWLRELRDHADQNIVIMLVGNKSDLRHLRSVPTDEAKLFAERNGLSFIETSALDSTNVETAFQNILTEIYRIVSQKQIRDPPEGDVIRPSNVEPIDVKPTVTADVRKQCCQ

- binding [1]: binds
- binding [2]: binds
- binding [3]: binds weakly
B1: Sec5 (protein, UniProt Q9VQQ9 1-894)
chain: MAPQPVVTGLSPKEGPPGTRVIIRGEFLGTRVQDLIGLKICGSDCLLSAEWKSPNKIIARTGPAKGKGDIIVTTLSGGVGTSTVQFRAYHETIGPLKESAVWIEESPSQNFAWGRRTLAQSGLTQEDPLGLSIEGNEQKIPEDLRDLFPEACGDLSQEHFSPAWFLLENHLATSFEDLKAGLSYLKRKVESQKEGQLSFLKSNAGSVIDQLDTLMNIRDKLQEDVKLHGNETLNILETSIENSISESQKIFTDVLVRKEKADSTRSVLFALSRHKFLFCLPNSVDRRAKAGEYDIVVNDYSRAKNLFGKTEIPIFRKVLEEVDHRILSIRKQLHEKVVKMPQSVEQQKKLIKALISLELQQSGTPIGDKLRNIDPAWDAIEARAKYLEWTFRQTFDQHTSKDSGAQEKAKNRDSSQAPNRVNFCEELCDIAASQLPDLWRLGQLYFTGELRGPHDPKPGDFKRMVLNAIEKFCVYLRLAILIATDQRALRQSSGLAWPIGSASATHQFLPWIPQCLRFTRIAYATLISLDLPSEALDIIQKLIDEVRLFCFSIIFKRATDRCKKLGSQETWELGVEEYPGATLLPAALETLLIETLDEVQSVCMQRETREGNLLEPQSDGQREVTQRLQEFLSAFSAVIEELAFHSHDEETPTHNVSQLLGFPNAQQPDSVAGSGGAAAVTWEQRMLCCLANYAYCNKIFFPRLGDIFVRYGYPLPTLAIETARYTVNQLFTNLLEEYVEHKGDPLVGTIEPSMYLGRFQWDHEMEIGQLRPYAHECCDNLVGVYSEIYSISPALLRPILESIVQTISEELARLMSCVQRFSFTGAIQAHVDIRLLRDSLEGYVNETAKNYFMEALEAINPPLSGEQKRKADEILERVKRNMRLQLLCFSVKDP
